Experimental data from paper PMC8657445.
No constants are given. Whether binding was seen depends on the method and setting. In cells and extracts the contact can be indirect. Binding can be weak; no strength is given. For part of these data: Tags and fused reporters may be left off the sequences shown.

T1: AtPII-GFP (Arabidopsis thaliana) (UniProt Q9ZST4)
T1 sequence: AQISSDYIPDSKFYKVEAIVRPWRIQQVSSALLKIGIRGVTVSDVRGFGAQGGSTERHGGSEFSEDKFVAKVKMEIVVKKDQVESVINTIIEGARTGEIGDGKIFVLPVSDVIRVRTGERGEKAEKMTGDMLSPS


How the values were obtained:
[1] = target: T1, AtPII-GFP (Arabidopsis thaliana); assay: FRET or BRET; FRET/FLIM: GFP donor lifetime of co-localising GFP and mCherry signals against AtPII-GFP alone; 2in1 pFRET vectors under p35S; transiently transformed N. benthamiana leaf disks, plastids in the epidermis
[2] = target: AtPII_(ΔCT15)-GFP (Arabidopsis thaliana); assay: co-IP; GFP-tagged proteins isolated with GFP traps from protein extracts of co-infiltrated tobacco leaves; co-eluted mCherry-tagged proteins detected by Western blot with an anti-RFP antibody

Row | Molecule | binding [1] | binding [2]
1 | AtDXR-mCherry (Arabidopsis thaliana) (enzyme) | binds | –
2 | AtPII-mCherry (protein, UniProt Q9ZST4 62-196) AQISSDYIPDSKFYKVEAIVRPWRIQQVSSALLKIGIRGVTVSDVRGFGAQGGSTERHGGSEFSEDKFVAKVKMEIVVKKDQVESVINTIIEGARTGEIGDGKIFVLPVSDVIRVRTGERGEKAEKMTGDMLSPS | – | binds
3 | AtNAGK-mCherry (enzyme, UniProt Q9SCL7 51-347) TVSTPPSIATGNAPSPDYRVEILSESLPFIQKFRGKTIVVKYGGAAMTSPELKSSVVSDLVLLACVGLRPILVHGGGPDINRYLKQLNIPAEFRDGLRVTDATTMEIVSMVLVGKVNKNLVSLINAAGATAVGLSGHDGRLLTARPVPNSAQLGFVGEVARVDPSVLRPLVDYGYIPVIASVAADDSGQAYNINADTVAGELAAALGAEKLILLTDVAGILENKEDPSSLIKEIDIKGVKKMIEDGKVAGGMIPKVKCCIRSLAQGVKTASIIDGRRQHSLLHEIMSDEGAGTMITG | – | binds
